Results are given in words; binding and its absence hold for the method and conditions named. Some binding calls cover weakened binding; strength is not graded here.
Legend:
human CD7 on cells [1] = molecular target: T1, human CD7 on cells (human, UniProt P09564 26-240); test: flow cytometry (PE, geomean), bi-Fab then PE mouse anti-human IgG Fab; Jurkat cells and healthy-donor T cells (both CD33-/CD7+); 10 nM by legend paragraph 112, no concentration on the sheet
T1 sequence (looked up): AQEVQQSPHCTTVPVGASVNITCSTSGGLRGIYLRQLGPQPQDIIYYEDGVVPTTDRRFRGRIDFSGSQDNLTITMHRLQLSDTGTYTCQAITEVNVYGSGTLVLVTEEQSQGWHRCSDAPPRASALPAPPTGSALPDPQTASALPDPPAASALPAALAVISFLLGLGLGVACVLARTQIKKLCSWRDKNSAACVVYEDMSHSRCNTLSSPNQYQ

human CD7 on cells [2] = molecular target: T1, human CD7 on cells; test: flow cytometry, bi-Fab at 10 nM (n=2) then PE mouse anti-human IgG Fab; Jurkat cells and healthy-donor T cells (both CD33-/CD7+)

B1: BVX152 (bispecific antibody)
heavy: QVQLQESGAELVKPGASVKLSCKASGYTFTSYWMHWVKQRPGQGLEWIGKINPSNGKTNYNEKFKSKATLTVDKSSSTAYMQLSSLTSEDSAVYYCARGGVYYDLYYAALDYWGQGTTVTVSSASTKGPSVFPLAPSSKSTSGGTAALGCLVKDYFPEPVTVSWNSGALTSGVHTFPAVLQSSGLYSLSSVVTVPSSSLGTQTYCCNVNHKPSNTKVDKKVEPKSCDKT
light: DIELTQSPATLSVTPGDSVSLSCRASQSISNNLHWYQQKSHESPRLLIKSASQSISGIPSRFSGSGSGTDFTLSINSVETEDFGMYFCQQSNSWPYTFGGGTKLEIKRTVAAPSVFIFPPSDEQLKSGTASVVCLLNNFYPREAKVQWKVDNALQSGNSQESVTEQDSKDSTYSLSSTLTLSKADYEKHKVYACEVTHQGLSSPVTKSFNRGEC
VH: EVQLVQSGAEVKKPGSSVKVSCKASGYTITDSNIHWVRQAPGQSLEWIGYIYPYNGGTDYNQKFKNRATLTVDNPTNTAYMELSSLRSEDTAFYYCVNGNPYLAAWGQGTLVTVSS
VL: DIQLTQSPSTLSASVGDRVTIICRASESLDNYGIRFLTWFQQKPGKAPKLLMYAASNQGSGVPSRFSGSGSGTEFTLTISSLQPDDFATYYCQQTKEVPWSFGQGTKLEIK
notes: bi-Fab; also called CD33-PP-7/CD7-PP-8
Human CD7 on cells [1]
  binding: binds
Human CD7 on cells [2]
  binding: binds

From patent US20250269048A1 (BIVICTRIX, published 2025)
